# Data taken from the supplement of paper PMC10735217.
# Structures can show the parent of a compound that is named as a salt. The list shows a part of the results. This data set is noisy: repeats of one test often differ as much as different tests do.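 The human kidney-derived cells carry a stably integrated construct of eight TEAD-binding elements driving luciferase, read by luminescence in a drug-repurposing library screen. A compound counts as a hit when its signal is more than five robust Z scores above the plate mean.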
# Test system: HEK293A TEAD-LUC reporter
# Experiment: TEAD-luciferase reporter activity (YAP activation), robust Z score vs plate; higher = stronger YAP/TEAD activation
# Conditions: 24 h
SMILES,TEAD-luciferase reporter activity (compound concentration: 200 nM),TEAD-luciferase reporter activity (compound concentration: 2 uM),TEAD-luciferase reporter activity (compound concentration: 10 uM)
O=C(N/N=C/c1ccc([N+](=O)[O-])o1)c1ccc(O)cc1,active: 5.75,inactive: -0.269,inactive: 0.421
Cc1ncc([N+](=O)[O-])n1CCCN1CCOCC1,inactive: -1.41,inactive: -1.17,inactive: -0.178
O=c1[nH]c2cc(-c3ccncc3)c(C(F)(F)F)nc2[nH]1,inactive: -0.28,inactive: 0.386,inactive: -1.69
COC(=O)Nc1nc2ccc(C(=O)c3ccc(F)cc3)cc2[nH]1 [flubendazole],,inactive: 0.396,
COC(=O)Nc1nc2ccc(C(=O)c3ccc(F)cc3)cc2[nH]1 [Flubendazole],inactive: -0.613,,active: 5.93
CCCCc1nc2ccc([C@@H]3C[C@H]4CCCN4O3)cc2c(=O)n1Cc1ccc(-c2ccccc2-c2nn[nH]n2)cc1,inactive: -1.38,inactive: -0.427,inactive: 2.26
CN(C)CCc1c[nH]c2ccc(C[C@H]3COC(=O)N3)cc12 [Zolmitriptan],inactive: 0.495,,inactive: 0.527
CN(C)CCc1c[nH]c2ccc(C[C@H]3COC(=O)N3)cc12 [zolmitriptan],,inactive: 0.796,
COc1ccc(S(=O)(=O)Nc2nc3ccccc3nc2Nc2ccc(C(C)=O)cc2)cc1,inactive: -2.02,inactive: -1.33,inactive: -1.34
CCOc1ccc(CN2CCCC23Cc2ccccc2CNC3=O)cc1 (stereo not drawn),inactive: -1.52,,inactive: -1.78
CC(C)CCOC(=O)C(N)c1ccccc1 (stereo not drawn),inactive: -0.91,inactive: -0.568,inactive: 2.81
NCCNc1ccc(NCCN)c2c1C(=O)c1ccncc1C2=O [pixantrone],inactive: -1.07,,inactive: -0.656
N#CCCCSC(=N)N [Thioureidobutyronitrile hydrochloride],inactive: -0.365,inactive: -2.67,inactive: -0.361
Cc1nc2ccc(C(=O)N3CCC4(CC3)CC(=O)c3c(cnn3C(C)C)C4)cc2[nH]1,inactive: -1.42,inactive: -0.205,inactive: 0.347
COC(=O)C12C(O)C(C(=O)Cc3ccccn3)=NN1C(c1ccccc1)C=CC2c1ccccc1 (stereo not drawn),inactive: -0.103,inactive: -0.419,inactive: -0.192
CC(C)NCC(O)c1ccc(O)c(O)c1 (stereo not drawn),inactive: -0.602,inactive: -1.87,active: 7.37
Nc1c(-c2cccc(C(F)(F)F)c2)nsc1C(=O)O [amflutizole],inactive: -0.0424,inactive: 2.78,inactive: -0.455
NCCS [Mercaptamine hydrochloride],,inactive: 1.21,
NCCS,inactive: 0.134,,inactive: 1.05
O=C(O)c1cccc(-c2cccc(NCCNC[C@H](O)c3cccc(Cl)c3)c2)c1 [solabegron hydrochloride],inactive: -0.0639,inactive: -1.21,inactive: 0.266
NC(CCCOc1cccc2ccccc12)N=O (stereo not drawn),inactive: -1.94,inactive: -1.07,inactive: 0.247
O=c1[nH]c2c(O)ccc(CCNCCNS(=O)(=O)CCOCCc3ccccc3)c2s1,inactive: -2.88,inactive: -1.46,inactive: -1.51
Cc1cccc(C)c1NC(=O)CC12CCCN1CCC2 [pilsicainide hydrochloride],inactive: 0.295,inactive: -0.717,inactive: 0.933
Cc1nnc(SCC2=C(C(=O)O)N3C(=O)C(NC(=O)Cn4cnnn4)C3SC2)s1 (stereo not drawn) [cefazolin dibenzylamine],inactive: 0.184,inactive: -0.732,inactive: 0.44
OC(CCN1CCCCC1)(c1ccccc1)c1ccccc1,inactive: -1.79,inactive: -0.722,inactive: -0.994
CN1CCC(c2c[nH]c3ccc(NC(=O)c4ccc(F)cc4)cc23)CC1,inactive: 0.495,inactive: 0.254,inactive: 1.58
COC[C@H]1C[C@](C#N)(Cn2cccn2)N(C(=O)c2ccc(C(C)(C)C)c(OC)c2)[C@H]1c1nccs1,inactive: 0.387,inactive: 1.26,inactive: -1.28
Cc1[nH]c(/C=C2\C(=O)Nc3ccc(F)cc32)c(C)c1C(=O)N[C@H]1CCN(C(=O)N(C)C)C1,inactive: 1.03,inactive: 1.88,inactive: 1.44

# Quoted from the entries so far for reference:
SMILES,TEAD-luciferase reporter activity (compound concentration: 200 nM),TEAD-luciferase reporter activity (compound concentration: 2 uM),TEAD-luciferase reporter activity (compound concentration: 10 uM)
N#CCCCSC(=N)N [Thioureidobutyronitrile hydrochloride],inactive: -0.365,inactive: -2.67,inactive: -0.361
Cc1nc2ccc(C(=O)N3CCC4(CC3)CC(=O)c3c(cnn3C(C)C)C4)cc2[nH]1,inactive: -1.42,inactive: -0.205,inactive: 0.347
COC(=O)C12C(O)C(C(=O)Cc3ccccn3)=NN1C(c1ccccc1)C=CC2c1ccccc1 (stereo not drawn),inactive: -0.103,inactive: -0.419,inactive: -0.192
CC(C)NCC(O)c1ccc(O)c(O)c1 (stereo not drawn),inactive: -0.602,inactive: -1.87,active: 7.37
Nc1c(-c2cccc(C(F)(F)F)c2)nsc1C(=O)O [amflutizole],inactive: -0.0424,inactive: 2.78,inactive: -0.455
NCCS [Mercaptamine hydrochloride],,inactive: 1.21,
NCCS,inactive: 0.134,,inactive: 1.05
